From patent EP0058015A2, “Treatment of infections” (BEECHAM GROUP PLC, priority 1981, dated 1982)
For at least one compound, name, drawing or mass did not settle the structure.

Test system: Staphylococci
Test: Rifampicin sensitivity (MIC) of staphylococci recovered from the treated mice
Assay type: cell-based, S. aureus
Details: mice treated with rifampicin alone

CO[C@H]1/C=C/O[C@@]2(C)Oc3c(C)c(O)c4c(O)c(c(/C=N/N5CCN(C)CC5)c(O)c4c3C2=O)NC(=O)/C(C)=C\C=C\[C@H](C)[C@H](O)[C@@H](C)[C@@H](O)[C@@H](C)[C@H](OC(C)=O)[C@@H]1C [Rifampicin, rifampicin]
mice from which recovered staphylococci were rifampicin resistant: three of the five
